Assay results taken from the supplement of paper PMC8728848.
The list shows a part of the results.

What was measured:
Assay in all cases: glycan array binding signal (z-score within array); higher = stronger binding
Settings in all cases: glycan notation: IUPAC condensed, linker removed
[1] = biological target: Neu5Ac(a2-6)Gal(b1-4)GlcNAc(b1-2)Man(a1-3)[Neu5Ac(a2-3)Gal(b1-4)GlcNAc(b1-2)Man(a1-6)]Man(b1-4)GlcNAc(b1-4)GlcNAc
How it was run: (§1)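 The binding signal is a Z-score computed within each array and averaged over linkers. Arrays of the same protein sequence at different concentrations or buffers were also averaged together. Data originate from 3228 arrays in the Consortium for Functional Glycomics database, kept only where the protein sequence was available.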

[2] = biological target: Neu5Ac(a2-6)Gal(b1-4)GlcNAc(b1-2)Man(a1-3)[Neu5Ac(a2-6)Gal(b1-4)GlcNAc(b1-2)Man(a1-6)]Man(b1-4)GlcNAc(b1-4)GlcNAc
How it was run: as §1

[3] = biological target: Neu5Ac(a2-6)Gal(b1-4)GlcNAc(b1-2)Man(a1-3)[Neu5Ac(a2-6)Gal(b1-4)GlcNAc(b1-2)Man(a1-6)]Man(b1-4)GlcNAc(b1-4)[Fuc(a1-6)]GlcNAc
How it was run: as §1

[4] = biological target: Neu5Ac(a2-6)Gal(b1-4)GlcNAc(b1-2)Man(a1-6)Man(b1-4)GlcNAc(b1-4)GlcNAc
How it was run: as §1

[5] = biological target: Neu5Ac(a2-6)Gal(b1-4)GlcNAc(b1-2)Man(a1-6)[Gal(b1-4)GlcNAc(b1-2)Man(a1-3)]Man(b1-4)GlcNAc(b1-4)GlcNAc
How it was run: as §1

[6] = biological target: Neu5Ac(a2-6)Gal(b1-4)GlcNAc(b1-2)Man(a1-6)[GlcNAc(b1-2)Man(a1-3)]Man(b1-4)GlcNAc(b1-4)GlcNAc
How it was run: as §1

[7] = biological target: Neu5Ac(a2-6)Gal(b1-4)GlcNAc(b1-2)Man(a1-6)[Man(a1-3)]Man(b1-4)GlcNAc(b1-4)GlcNAc
How it was run: as §1

[8] = biological target: Neu5Ac(a2-6)Gal(b1-4)GlcNAc(b1-2)[Neu5Ac(a2-6)Gal(b1-4)GlcNAc(b1-4)]Man(a1-3)[GlcNAc(b1-4)][Neu5Ac(a2-6)Gal(b1-4)GlcNAc(b1-2)[Neu5Ac(a2-6)Gal(b1-4)GlcNAc(b1-6)]Man(a1-6)]Man(b1-4)GlcNAc(b1-4)GlcNAc
How it was run: as §1

[9] = biological target: Neu5Ac(a2-6)Gal(b1-4)GlcNAc(b1-2)[Neu5Ac(a2-6)Gal(b1-4)GlcNAc(b1-4)]Man(a1-3)[GlcNAc(b1-4)][Neu5Ac(a2-6)Gal(b1-4)GlcNAc(b1-4)Man(a1-6)]Man(b1-4)GlcNAc(b1-4)GlcNAc
How it was run: as §1

[10] = biological target: Neu5Ac(a2-6)Gal(b1-4)GlcNAc(b1-2)[Neu5Ac(a2-6)Gal(b1-4)GlcNAc(b1-6)]Man(a1-6)[Neu5Ac(a2-6)Gal(b1-4)GlcNAc(b1-2)Man(a1-3)][GlcNAc(b1-4)]Man(b1-4)GlcNAc(b1-4)GlcNAc
How it was run: as §1

[11] = biological target: Neu5Ac(a2-6)Gal(b1-4)GlcNAc(b1-3)Gal(b1-3)GlcNAc
How it was run: as §1

[12] = biological target: Neu5Ac(a2-6)Gal(b1-4)GlcNAc(b1-3)Gal(b1-4)GlcNAc
How it was run: as §1

[13] = biological target: Neu5Ac(a2-6)Gal(b1-4)GlcNAc(b1-3)Gal(b1-4)GlcNAc(b1-2)Man(a1-3)[Neu5Ac(a2-6)Gal(b1-4)GlcNAc(b1-3)Gal(b1-4)GlcNAc(b1-2)Man(a1-6)]GalNAc
How it was run: as §1

[14] = biological target: Neu5Ac(a2-6)Gal(b1-4)GlcNAc(b1-3)Gal(b1-4)GlcNAc(b1-3)Gal(b1-4)GlcNAc
How it was run: as §1

[15] = biological target: Neu5Ac(a2-6)Gal(b1-4)GlcNAc(b1-3)Gal(b1-4)GlcNAc(b1-3)Gal(b1-4)GlcNAc(b1-2)Man(a1-3)[Neu5Ac(a2-6)Gal(b1-4)GlcNAc(b1-3)Gal(b1-4)GlcNAc(b1-3)Gal(b1-4)GlcNAc(b1-2)Man(a1-6)]GalNAc
How it was run: as §1

[16] = biological target: Neu5Ac(a2-6)Gal(b1-4)GlcNAc(b1-3)Gal(b1-4)GlcNAc(b1-3)GalNAc
How it was run: as §1

[17] = biological target: Neu5Ac(a2-6)Gal(b1-4)GlcNAc(b1-3)Gal(b1-4)GlcNAc(b1-3)[Neu5Ac(a2-6)Gal(b1-4)GlcNAc(b1-3)Gal(b1-4)GlcNAc(b1-6)]GalNAc
How it was run: as §1

[18] = biological target: Neu5Ac(a2-6)Gal(b1-4)GlcNAc(b1-3)Gal(b1-4)GlcNAc(b1-6)[Gal(b1-3)]GalNAc
How it was run: as §1

[19] = biological target: Neu5Ac(a2-6)Gal(b1-4)GlcNAc(b1-3)Gal(b1-4)[Fuc(a1-3)]GlcNAc(b1-3)Gal(b1-4)[Fuc(a1-3)]GlcNAc
How it was run: as §1

[20] = biological target: Neu5Ac(a2-6)Gal(b1-4)GlcNAc(b1-3)GalNAc
How it was run: as §1

[21] = biological target: Neu5Ac(a2-6)Gal(b1-4)GlcNAc(b1-3)[Neu5Ac(a2-6)Gal(b1-4)GlcNAc(b1-6)]GalNAc
How it was run: as §1

[22] = biological target: Neu5Ac(a2-6)Gal(b1-4)GlcNAc(b1-6)GalNAc
How it was run: as §1

[23] = biological target: Neu5Ac(a2-6)Gal(b1-4)GlcNAc(b1-6)[Gal(b1-3)GlcNAc(b1-3)]Gal(b1-4)Glc
How it was run: as §1

[24] = biological target: Neu5Ac(a2-6)Gal(b1-4)GlcNAc(b1-6)[Gal(b1-3)]GalNAc
How it was run: as §1

[25] = biological target: Neu5Ac(a2-6)Gal(b1-4)GlcNAc6S
How it was run: as §1

Neu5Ac(a2-6)GalNAc = biological target: Neu5Ac(a2-6)GalNAc
How it was run: as §1

[26] = biological target: Neu5Ac(a2-6)GalNAc(b1-4)GlcNAc
How it was run: as §1

[27] = biological target: Neu5Ac(a2-6)GalNAc(b1-4)GlcNAc6S
How it was run: as §1

[28] = biological target: Neu5Ac(a2-6)GlcNAc(b1-4)GlcNAc
How it was run: as §1

[29] = biological target: Neu5Ac(a2-6)GlcNAc(b1-4)GlcNAc(b1-4)GlcNAc
How it was run: as §1

B1: PX14343C-bfa-541-26-541 (Bacteroides fragilis) (protein)
chain: KAPLDEIADDSFWSDETLVKYYVNDLYSEISVDGLQLQENRSDNSVSAQRDKYRASWFKFNYDMVSASDPQDDDVWEDYYVKVRKCNRFFERIGTSTIEESEKSRLTGEVHFLRAMFYFEMVKRYGGVILLDKVLTMEDNWEIPRSSEKECYDFILEDLKKATEMLPASYGSREKGRATKGAAYALKSRVELYDKRYEDVIKSCAEVYKLGYELVDGTTPEKYRSIWWTTNKDNKEIIFDVQYKSPDVYNNMMVCNMVTYINDKYGDRGWGGLGPTQELIDAFEMADGTPATQYSQAPADQVFDINTCGIYEGREPRFYANIVFHGSQIFFNADKGAVTVDRYLMDTPDKGDGSLTGYNVWKWIDYDNYNYPYAGAGSPDFSTNWIILRYAEIYLNDAEARLETGDVEGARKAVNMIRQRVGLPDLTESDPEKLRELIRKERRIEFAFEEQRFYDVRRWKIGPETQTTLHGVRFVSPTEFKVTKTDIRTWNDRLYLTPVPHDEIVRSSVLKQNLGY
glycan array binding signal (z-score) [1]: 0.23
glycan array binding signal (z-score) [2]: -0.207
glycan array binding signal (z-score) [3]: -0.69
glycan array binding signal (z-score) [4]: 1.21
glycan array binding signal (z-score) [5]: -0.665
glycan array binding signal (z-score) [6]: -0.485
glycan array binding signal (z-score) [7]: -0.792
glycan array binding signal (z-score) [8]: -0.339
glycan array binding signal (z-score) [9]: 0.572
glycan array binding signal (z-score) [10]: 1.77
glycan array binding signal (z-score) [11]: -1.08
glycan array binding signal (z-score) [12]: -0.821
glycan array binding signal (z-score) [13]: 1.53
glycan array binding signal (z-score) [14]: -0.192
glycan array binding signal (z-score) [15]: 1.05
glycan array binding signal (z-score) [16]: -0.036
glycan array binding signal (z-score) [17]: 0.727
glycan array binding signal (z-score) [18]: -0.862
glycan array binding signal (z-score) [19]: 0.149
glycan array binding signal (z-score) [20]: 1.4
glycan array binding signal (z-score) [21]: -0.6
glycan array binding signal (z-score) [22]: 0.168
glycan array binding signal (z-score) [23]: 5.89
glycan array binding signal (z-score) [24]: -0.647
glycan array binding signal (z-score) [25]: -0.293
glycan array binding signal (z-score) (Neu5Ac(a2-6)GalNAc): -0.484
glycan array binding signal (z-score) [26]: -0.84
glycan array binding signal (z-score) [27]: -0.494
glycan array binding signal (z-score) [28]: 0.294
glycan array binding signal (z-score) [29]: 0.025
